SMILES strings stand for the structures. Where “and” joins values, the source holds several entries; their conditions need not be identical. Equal entries are not always repeated. The list shows a part of the results. Further columns of the screen follow, without active or inactive calls. The list favours compounds with an active or inconclusive main result. Potencies come from curve fits of mixed quality, noted in brackets.

Consider 54 molecules from PubChem BioAssay AID1487 (National Center for Advancing Translational Sciences (NCATS), 2009).

This experiment in a line: qHTS Assay for Modulators of Lamin A Splicing. The settings on record: HeLa LMNA splicing GFP/RFP minigene ratio, 48 h. Summed up:
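S3 HeLa stable clones carrying a lamin A-EGFP splicing minigene plus DsRed2 were seeded at 600 cells/well in Opti-MEM with 2% FBS, pin-dosed and incubated 48 h at 37°C. Acumen cytometry (488 nm) gave the GFP/RFP total-intensity ratio.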
A general note: Quantitative high-throughput screening tests each substance at several concentrations.

The mark [1] stands for this setting: measured here: RFP viability control channel.
Setting [2] is: measured here: GFP splicing reporter channel.

For orientation: AC50 means the concentration giving half of the maximal activity seen. As to `CCCN(CCC)S(=O)(=O)c1ccc(C(=O)N2CCCc3ccccc32)cc1`, the AC50 under setting [1] is 31.6 µM [rising, single point]. For `N#Cc1c(Nc2cccc(F)c2)sc2c(O)cc(=O)[nH]c12`, the AC50 under setting [1] was 35.5 µM [rising, single point]. As to `COc1ccc(/C(N)=N/OC(=O)Cc2cccs2)cc1OC`, the AC50 was 0.0282 µM [rising, partial curve, poor fit] under setting [2] and 0.0891 µM [rising, full curve, poor fit] under setting [1]. For `Cc1ccc(N(CC(=O)Nc2ccc(F)c(Cl)c2)S(=O)(=O)c2c(C)noc2C)cc1`, the AC50 is 35.5 µM [rising, single point] under setting [2] and 20 µM [rising, single point] under setting [1]. For `Cc1nn(CC(O)CN2c3ccccc3Sc3ccccc32)c(C)c1Br` (configuration not stated), the AC50 is 22.4 µM [falling, single point] under setting [2] and 35.5 µM [falling, partial curve, poor fit] under setting [1]. As to `CCC(=O)N1CCN(c2ccc(NC(=O)COc3ccccc3Cl)cc2)CC1`, the AC50 under setting [1] is 12.6 µM [rising, single point]. For `O=C(CN1CCSc2ccccc21)NCCCc1ccccc1`, the AC50 under setting [2] is 35.5 µM [rising, single point]. As for `CN1CCN(C(=O)c2ccc(S(=O)(=O)c3ccc(Br)cc3)cc2)CC1`, under setting [1], the AC50 is 10 µM [rising, partial curve]. With `Cc1c(Cl)cccc1-n1c(SCC(=O)N2CCC(C(=O)O)CC2)nnc1-c1ccncc1`, the AC50 is, setting by setting: under setting [2], 0.562 µM [falling, full curve, poor fit]; under setting [1], 0.158 µM [falling, single point].

Take `Cc1cc(Nc2cccc(Cl)c2)nc2ccc(NC(=O)Cc3c(F)cccc3Cl)cc12`: the AC50 under setting [2] is 0.0794 µM [falling, partial curve]. For `CCOC(=O)C(=O)NNc1ccccc1C`, the AC50 under setting [2] is 31.6 µM [rising, single point]. For `CC(=O)Nc1ccc2c(c1)c1ccccc1n2C(C)=O`, the AC50 under setting [2] was 35.5 µM [rising, single point] and the AC50 under setting [1] is 3.55 µM [rising, partial curve, poor fit].

On to `Cc1cccc(NS(=O)(=O)c2ccc(C)c(C(=O)OCC(=O)Nc3cc(C)on3)c2)c1`, for which the AC50 is 11.2 µM [rising, partial curve, poor fit] under setting [2] and 11.2 µM [rising, partial curve] under setting [1]. As to `CC(C(=O)Nc1cccc(Br)c1)c1ccc([N+](=O)[O-])cc1` (configuration not stated), the AC50 under setting [1] is 14.1 µM [rising, single point]. With `COc1ccc2[nH]cc(CCNc3nc(-c4ccccc4OC)nc4ccccc34)c2c1`, under setting [2], the AC50 was 35.5 µM [falling, single point]. For the molecule `Cc1csc(NC(=O)C2CCCN(S(=O)(=O)c3ccc(Br)s3)C2)n1` (configuration not stated), the AC50 by setting is: under setting [2], 11.2 µM [rising, partial curve, poor fit]; under setting [1], 12.6 µM [rising, partial curve]. Take `COC(=O)c1ccc2c(c1)N(CC(=O)Nc1ccc(C)c(C)c1)C(=O)c1ccccc1S2`: the AC50 under setting [2] was 0.316 µM [falling, full curve]. Still for that read-out and setting: the figure for `CCCC1=C(C(=O)OCC)C(c2ccc(F)cc2)n2ncnc2N1` (configuration not stated) is 0.00355 µM [falling, full curve, poor fit]. With `Oc1ccccc1-c1cc(-c2ccc3c(c2)OCCO3)n[nH]1`, the AC50 reads like this: under setting [2], 35.5 µM [rising, single point]; under setting [1], 35.5 µM [rising, single point]. As for `O=[N+]([O-])c1ccc(/C=N/Nc2ncc(-c3ccccc3)cn2)cc1`, the AC50 under setting [1] was 35.5 µM [falling, partial curve, poor fit].

`COc1ccc(CN(CCC(c2ccccc2)c2ccco2)C(=O)c2ccco2)cc1` (configuration not stated): the AC50 under setting [1] is 14.1 µM [rising, single point]. Turning to `O=S(=O)(NCC(c1ccco1)N1CCN(c2ccc(F)cc2)CC1)c1cc(F)ccc1F` (configuration not stated), the AC50 under setting [2] was 0.0708 µM [falling, full curve, poor fit]. For `COc1ccc(CCNC(=O)c2ccc3[nH]c(C)c(C)c3c2)cc1OC`, the AC50 by setting is: under setting [2], 25.1 µM [falling, single point]; under setting [1], 35.5 µM [falling, single point]. In the case of `CCCN1CCc2c(sc(NC(=S)NC(=O)c3ccccc3)c2C#N)C1`, the AC50 under setting [1] is 0.0112 µM [falling, full curve, poor fit]. Regarding `CCCCS/C(=C(/C#N)C(N)=O)c1cc2c([nH]1)CCCC2`, the AC50 runs as follows: under setting [2], 35.5 µM [rising, single point]; under setting [1], 35.5 µM [rising, single point]. Take `Nc1ccc(S(=O)(=O)NNC(=O)C(=O)NNc2ccccc2)cc1`: the AC50 under setting [1] is 10 µM [rising, partial curve, poor fit]. For the molecule `O=C(O)c1ccc(Nc2ncnc3scc(-c4ccccc4)c23)cc1`, the AC50 is 10 µM [falling, partial curve] and 12.6 µM [falling, partial curve] under setting [2]; 4.47 µM [falling, partial curve, poor fit] and 10 µM [falling, partial curve] under setting [1]. With `CCc1ccc2nc(N(Cc3cccnc3)C(=O)Cc3ccccc3)sc2c1`, under setting [1], the AC50 was 0.0631 µM [falling, full curve, poor fit]. As to `O=[N+]([O-])c1c(NCCCO)cc(Sc2nc3ccccc3s2)c2nonc12`, the AC50 under setting [2] is 11.2 µM [falling, partial curve] and the AC50 under setting [1] was 11.2 µM [falling, partial curve]. Regarding `Cn1c(CNc2cccc(C(F)(F)F)c2)n[nH]c1=S`, the AC50 under setting [1] is 11.2 µM [falling, partial curve, poor fit]. Still for that read-out and setting: the figure for `O=C(O)c1ccccc1SC1CC(=O)N(c2ccc3c(c2)OCO3)C1=O` (configuration not stated) is 1.78 µM [rising, partial curve, poor fit]. For `CN(C)C(=O)CSc1nnc(-c2ccncc2)n1Cc1ccco1`, the AC50 under setting [2] was 0.158 µM [falling, single point].

Take `COc1ccc2[nH]cc(C(=O)CN3CCCCC3)c2c1`: the AC50 is, setting by setting: under setting [2], 5.62 µM [rising, single point]; under setting [1], 3.98 µM [rising, single point].

Take `CCc1ccccc1N1C(=O)N(Cc2cc(=O)n3ccccc3n2)c2ccccc2S1(=O)=O`: under setting [2], the AC50 is 5.62 µM [falling, single point].

Turning to `CCOC(=O)C(=Cc1ccc(Br)cc1)C(=O)OCC`, the AC50 reads like this: under setting [2], 5.62 µM [falling, full curve, poor fit]; under setting [1], 3.55 µM [falling, full curve, poor fit]. `Cc1oc2c(cc(NS(=O)(=O)c3cccs3)c3ccccc32)c1C(=O)OC(C)C`: the AC50 under setting [1] was 35.5 µM [rising, single point]. Turning to `Cc1nn(C)c(C)c1CN(C)C(=O)c1nn2c(c1Br)NC(c1cccs1)CC2C(F)(F)F` (configuration not stated), the AC50 runs as follows: under setting [2], 12.6 µM [rising, single point]; under setting [1], 15.8 µM [rising, single point].

Consider `Nc1nc(Nc2ccc(Cl)cc2Cl)nc(C(F)(F)F)n1`, for which, under setting [2], the AC50 is 8.91 µM [falling, single point]. `Cc1cc(Cl)ccc1NNC(=O)c1c(C)noc1C`: the AC50 by setting is: under setting [2], 6.31 µM [rising, partial curve, poor fit]; under setting [1], 5.62 µM [rising, partial curve, poor fit]. Turning to `Cc1cccc2cc(CN(Cc3ccc(F)cc3)C(=O)N(C)C)c3nnnn3c12`, the AC50 runs as follows: under setting [2], 12.6 µM [rising, partial curve]; under setting [1], 14.1 µM [rising, partial curve]. Consider `CC(=O)n1nc(-c2ccccc2)nc1NCc1ccc(N(C)C)cc1`, for which the AC50 runs as follows: under setting [2], 5.62 µM [falling, single point]; under setting [1], 5.62 µM [falling, partial curve]. Turning to `COc1ccc(CNC(=O)CCn2c(=O)c3cccn3c3ccc(F)cc32)cc1OC`, the AC50 under setting [2] was 25.1 µM [rising, partial curve, poor fit].

As for `O=C(Cn1ncc(Cl)c(Cl)c1=O)N1CCN(Cc2ccccc2)CC1`, the AC50 under setting [1] was 12.6 µM [rising, single point]. Take `CCC1CCCCN1S(=O)(=O)c1ccc(C(=O)Nc2nnc(-c3ccccc3Cl)o2)cc1` (configuration not stated): under setting [1], the AC50 was 2.51 µM [rising, full curve]. For `CCOc1ccc(-c2nnc(SCC(=O)NC3CCCCC3)nc2-c2ccc(OCC)c(OC)c2)cc1OC`, the AC50 is, setting by setting: under setting [2], 0.398 µM [rising, full curve, poor fit]; under setting [1], 0.398 µM [rising, full curve, poor fit]. Take `COc1ccc(CN(CCN(C)C)c2ncccn2)cc1`: the AC50 by setting is: under setting [2], 0.000794 µM [falling, full curve, poor fit]; under setting [1], 35.5 µM [falling, single point]. As to `COc1ccc(-c2[nH]ncc2Oc2ccccc2OC)c(O)c1`, the AC50 by setting is: under setting [2], 12.6 µM [rising, partial curve]; under setting [1], 11.2 µM [rising, partial curve]. As to `CCn1c(SCc2ccccc2)nnc1-c1cccs1`, the AC50 under setting [1] was 20 µM [rising, single point]. Consider `CC(C)c1ccc(NC(=O)c2cc(S(=O)(=O)NCCc3ccccc3)ccc2F)cc1`, for which the AC50 runs as follows: under setting [2], 7.94 µM [falling, partial curve, poor fit]; under setting [1], 8.91 µM [falling, partial curve, poor fit]. Consider `Cn1c2c(c(=O)c3ccccc31)CCC(C)(C)O2`, for which, under setting [1], the AC50 is 0.00501 µM [falling, full curve, poor fit]. For `CCC(=O)c1ccc(OCC(O)Cn2nnc3ccccc32)cc1` (configuration not stated), under setting [2], the AC50 was 0.0398 µM [falling, full curve, poor fit].

`Oc1ccc(C2CNCc3sccc32)cc1O` (configuration not stated): the AC50 under setting [1] was 0.112 µM [falling, full curve, poor fit]. As for `COC(=O)c1c(NC(C)=O)csc1C`, the AC50 under setting [2] is 3.16 µM [rising, single point]. As to `Cc1cc(C(=O)OCC(=O)NCCC(C)C)c2ccccc2n1`, the AC50 under setting [2] is 0.00447 µM [falling, full curve, poor fit] and the concentration at half-maximal activity (AC50) under setting [1] was 0.00398 µM [falling, full curve, poor fit].
